Consider 2 molecules from PMC3741163.

Sequences of proteins named here, by UniProt entry; tags and fusion partners are left off.
UniProt P41597: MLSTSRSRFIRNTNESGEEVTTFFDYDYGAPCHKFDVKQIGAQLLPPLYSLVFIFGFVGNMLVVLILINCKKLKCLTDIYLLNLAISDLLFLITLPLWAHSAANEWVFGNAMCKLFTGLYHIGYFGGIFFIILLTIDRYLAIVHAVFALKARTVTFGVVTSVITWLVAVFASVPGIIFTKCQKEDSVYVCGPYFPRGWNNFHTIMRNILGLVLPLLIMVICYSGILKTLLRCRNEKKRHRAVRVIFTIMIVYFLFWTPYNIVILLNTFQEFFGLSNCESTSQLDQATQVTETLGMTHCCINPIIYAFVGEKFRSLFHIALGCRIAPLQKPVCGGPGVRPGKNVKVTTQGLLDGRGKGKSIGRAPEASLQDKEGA
UniProt P51677: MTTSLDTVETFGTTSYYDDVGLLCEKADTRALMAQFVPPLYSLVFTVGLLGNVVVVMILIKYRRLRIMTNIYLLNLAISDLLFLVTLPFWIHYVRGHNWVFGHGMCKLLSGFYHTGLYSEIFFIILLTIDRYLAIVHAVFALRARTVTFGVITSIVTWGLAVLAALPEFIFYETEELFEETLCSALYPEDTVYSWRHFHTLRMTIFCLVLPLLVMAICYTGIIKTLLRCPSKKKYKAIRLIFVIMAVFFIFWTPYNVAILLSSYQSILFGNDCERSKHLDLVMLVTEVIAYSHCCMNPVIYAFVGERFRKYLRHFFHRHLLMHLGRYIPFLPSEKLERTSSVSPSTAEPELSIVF
UniProt P51681: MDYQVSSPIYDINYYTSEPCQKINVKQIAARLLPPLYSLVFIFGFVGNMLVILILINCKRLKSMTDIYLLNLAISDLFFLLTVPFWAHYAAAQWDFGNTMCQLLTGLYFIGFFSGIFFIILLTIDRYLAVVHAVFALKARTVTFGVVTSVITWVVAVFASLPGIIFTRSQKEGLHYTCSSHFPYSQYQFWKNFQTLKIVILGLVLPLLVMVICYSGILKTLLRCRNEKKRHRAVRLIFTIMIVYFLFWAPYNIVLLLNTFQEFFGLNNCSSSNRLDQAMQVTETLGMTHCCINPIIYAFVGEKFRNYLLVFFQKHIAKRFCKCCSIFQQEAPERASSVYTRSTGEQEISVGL

These are yes or no findings as the source states them, for the method shown. Some entries that bind do so weakly or less than the wild type.

Assay [1] has as its target CCR2 (UniProt P41597). The assay is described as follows: flow cytometry on cells; Alexa 647-CCL18 at 1, 10 or 100 nM on 10^6 L1.2 transfectants or untransfected L1.2 cells, 1 h at 4 °C in FACS buffer (PBS, 0.1% BSA, 0.01% azide); only the binder purified. For orientation: In flow cytometry, cells or beads pass a laser one at a time.
Assay [2] deals with CCR3 (UniProt P51677). The assay is described as above.
Assay [3] concerns the target CCR5 (UniProt P51681). The assay is described as above.
Assay [4] has as its target T1, CCR4 (UniProt P51679).
T1 sequence: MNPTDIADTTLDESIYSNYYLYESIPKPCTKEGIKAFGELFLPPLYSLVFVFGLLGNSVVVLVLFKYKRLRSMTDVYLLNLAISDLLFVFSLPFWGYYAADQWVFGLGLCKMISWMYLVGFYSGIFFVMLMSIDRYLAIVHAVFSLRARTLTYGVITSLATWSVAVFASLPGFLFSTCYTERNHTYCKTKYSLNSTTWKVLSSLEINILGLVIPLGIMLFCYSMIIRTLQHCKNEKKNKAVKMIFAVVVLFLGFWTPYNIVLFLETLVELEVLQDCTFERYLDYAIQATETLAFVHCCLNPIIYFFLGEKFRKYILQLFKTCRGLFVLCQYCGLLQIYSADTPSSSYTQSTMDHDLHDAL
Described as above.

Assay [5] concerns the target CCR3 (UniProt P51677). The assay is described as follows: radioligand binding; equilibrium competition on L1.2/CCR3 transfectants, tracer 0.1 nM 125I-CCL18, 0.1 x10^6 cells/well, competitor 10^-6 to 10^-12 M, room temperature 4 h, filtration; only the binder purified.
Assay [6] concerns the target CCR3 (UniProt P51677). The assay is described as follows: radioligand binding; data not shown: competition of 44AAGA47-CCL18 for 125I-CCL18 binding to CCR3 in receptor binding studies; only the binder purified.

B1: Alexa 647-CCL18 (ligand, UniProt P55774 21-89)
chain: AQVGTNKELCCLVYTSWQIPQKFIVDYSETSPQCPKPGVILLTKRGRQICADPNKKWVQKYISDLKLNA
modifications: Alexa 647 label (position not given)
With B1, the binding result in assay [1] was “no binding (tested: 100 nM)”; in assay [2], “binds”; in assay [3] it was “no binding (tested: 100 nM)”; in assay [4], “no binding (tested: 100 nM)”.

B2: ^125I-CCL18 (ligand, UniProt P55774 21-89)
chain: AQVGTNKELCCLVYTSWQIPQKFIVDYSETSPQCPKPGVILLTKRGRQICADPNKKWVQKYISDLKLNA
modifications: 125I label (iodinated; residue not stated)
As to B2, the binding result in assay [5] and in assay [6] was “binds” each time.
